Data taken from article PMC10238197, “Deafness‐Associated ADGRV1 Mutation Impairs USH2A Stability through Improper Phosphorylation of WHRN and WDSUB1 Recruitment” (Advanced Science, 2023).
Results are given in words; binding and its absence hold for the method and conditions named. Binding seen in cells or lysates may run through a third protein. Some results given as binding are weak or reduced against the parent protein; the word gives no strength. Tags and fused reporters may be left off the sequences shown.

Experiments:
Test in all cases: FRET or BRET; intermolecular FlAsH-BRET saturation in HEK293 cells: fixed amount of WHRN-Nluc, increasing ADGRV1-FlAsH or USH2A-FlAsH; 2.5 µM FlAsH-EDT2, 5 µM coelenterazine-h; net BRET Em530/Em485
[1] = molecular target: T1, WHRN-Nluc (Z1-L) K210A (mouse) (UniProt Q80VW5)
T1 sequence: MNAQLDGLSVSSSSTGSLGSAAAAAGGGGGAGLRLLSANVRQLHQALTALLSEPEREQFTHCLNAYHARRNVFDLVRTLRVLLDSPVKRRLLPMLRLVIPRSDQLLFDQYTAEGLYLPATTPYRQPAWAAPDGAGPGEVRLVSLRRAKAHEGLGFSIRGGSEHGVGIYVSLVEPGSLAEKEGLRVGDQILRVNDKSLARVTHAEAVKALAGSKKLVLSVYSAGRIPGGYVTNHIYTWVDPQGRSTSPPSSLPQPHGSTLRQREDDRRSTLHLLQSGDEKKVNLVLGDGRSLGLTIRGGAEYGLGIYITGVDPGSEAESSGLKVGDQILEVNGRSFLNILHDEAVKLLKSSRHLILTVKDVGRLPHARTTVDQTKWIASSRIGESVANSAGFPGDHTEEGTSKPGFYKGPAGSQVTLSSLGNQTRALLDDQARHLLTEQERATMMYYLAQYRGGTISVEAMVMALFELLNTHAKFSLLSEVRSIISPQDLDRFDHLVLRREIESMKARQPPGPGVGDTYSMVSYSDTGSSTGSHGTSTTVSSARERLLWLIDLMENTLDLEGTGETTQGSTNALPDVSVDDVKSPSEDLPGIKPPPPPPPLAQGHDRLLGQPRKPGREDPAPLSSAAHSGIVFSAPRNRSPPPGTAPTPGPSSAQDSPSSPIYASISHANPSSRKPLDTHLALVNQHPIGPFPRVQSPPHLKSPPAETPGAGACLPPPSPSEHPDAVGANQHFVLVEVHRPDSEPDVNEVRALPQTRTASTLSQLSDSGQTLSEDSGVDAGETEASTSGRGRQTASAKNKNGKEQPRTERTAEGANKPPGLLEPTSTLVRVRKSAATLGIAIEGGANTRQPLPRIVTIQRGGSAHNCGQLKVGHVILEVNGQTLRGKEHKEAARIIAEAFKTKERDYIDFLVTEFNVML

[2] = molecular target: T2, WHRN-Nluc (Z1-L) L171A (mouse) (UniProt Q80VW5)
T2 sequence: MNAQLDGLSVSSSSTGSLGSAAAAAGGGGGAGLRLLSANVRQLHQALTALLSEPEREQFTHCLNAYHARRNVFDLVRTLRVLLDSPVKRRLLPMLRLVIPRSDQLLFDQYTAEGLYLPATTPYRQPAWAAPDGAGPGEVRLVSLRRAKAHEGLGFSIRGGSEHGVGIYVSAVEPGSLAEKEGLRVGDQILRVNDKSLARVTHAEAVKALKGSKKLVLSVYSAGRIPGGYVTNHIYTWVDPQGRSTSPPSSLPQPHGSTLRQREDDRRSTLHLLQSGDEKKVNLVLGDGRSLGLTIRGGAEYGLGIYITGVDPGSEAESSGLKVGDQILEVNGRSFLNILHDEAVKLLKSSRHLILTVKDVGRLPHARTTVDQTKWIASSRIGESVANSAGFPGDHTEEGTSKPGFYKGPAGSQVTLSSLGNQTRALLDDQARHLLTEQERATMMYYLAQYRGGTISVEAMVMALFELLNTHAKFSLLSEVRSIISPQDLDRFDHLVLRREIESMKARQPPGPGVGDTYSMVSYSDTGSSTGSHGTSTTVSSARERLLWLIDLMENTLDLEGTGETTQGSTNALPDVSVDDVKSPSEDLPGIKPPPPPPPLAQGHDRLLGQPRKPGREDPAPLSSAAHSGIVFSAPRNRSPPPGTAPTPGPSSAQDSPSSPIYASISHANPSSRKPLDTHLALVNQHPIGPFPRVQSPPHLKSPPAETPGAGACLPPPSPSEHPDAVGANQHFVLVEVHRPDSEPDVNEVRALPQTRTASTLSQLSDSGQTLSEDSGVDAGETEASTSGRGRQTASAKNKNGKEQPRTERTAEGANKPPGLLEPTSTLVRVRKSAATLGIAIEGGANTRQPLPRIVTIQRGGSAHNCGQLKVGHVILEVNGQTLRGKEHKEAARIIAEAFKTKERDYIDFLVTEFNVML

WHRN-Nluc Z1-L (mouse) = molecular target: T3, WHRN-Nluc Z1-L (mouse) (UniProt Q80VW5)
T3 sequence: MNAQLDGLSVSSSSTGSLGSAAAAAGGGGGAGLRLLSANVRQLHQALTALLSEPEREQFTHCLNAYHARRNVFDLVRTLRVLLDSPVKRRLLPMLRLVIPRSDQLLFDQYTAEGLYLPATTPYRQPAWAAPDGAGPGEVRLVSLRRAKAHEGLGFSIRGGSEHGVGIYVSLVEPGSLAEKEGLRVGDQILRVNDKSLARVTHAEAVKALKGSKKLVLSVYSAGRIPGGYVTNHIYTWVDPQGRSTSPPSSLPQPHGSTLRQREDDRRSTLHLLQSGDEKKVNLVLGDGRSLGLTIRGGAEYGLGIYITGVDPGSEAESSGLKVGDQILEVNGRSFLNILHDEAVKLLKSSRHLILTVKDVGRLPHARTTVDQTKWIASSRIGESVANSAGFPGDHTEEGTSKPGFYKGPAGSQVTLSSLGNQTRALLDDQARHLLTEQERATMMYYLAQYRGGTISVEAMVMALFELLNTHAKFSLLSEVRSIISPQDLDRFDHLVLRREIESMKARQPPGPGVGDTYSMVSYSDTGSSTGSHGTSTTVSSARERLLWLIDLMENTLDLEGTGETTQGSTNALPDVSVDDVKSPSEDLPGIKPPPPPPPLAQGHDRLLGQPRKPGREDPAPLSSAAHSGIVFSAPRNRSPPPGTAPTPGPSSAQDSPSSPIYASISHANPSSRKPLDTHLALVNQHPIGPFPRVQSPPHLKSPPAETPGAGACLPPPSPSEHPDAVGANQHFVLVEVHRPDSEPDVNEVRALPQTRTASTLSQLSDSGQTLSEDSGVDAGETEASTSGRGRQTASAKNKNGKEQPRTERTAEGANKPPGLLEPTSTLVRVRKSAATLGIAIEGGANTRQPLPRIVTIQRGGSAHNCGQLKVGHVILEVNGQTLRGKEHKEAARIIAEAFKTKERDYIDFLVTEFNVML

Measured: binding

B1: USH2A-FlAsH (domain or fragment, UniProt Q2QI47 4819-5193)
chain: PPSGLSPPQVQTLGSRMASVHWTPPLLPNGVIHSYELQLQRACPPDSAPRCPPSHTERKYWGPGHRASLAGLQPNTAYGVQVVAYNEAGSTASGWTNFSTKKEMPQYQALFSVDSNASMVWVDWSGTFLLNGHLKEYVVTDGGRRVYSGLDTTLYIPRMVDKIFFFQVTCTTDIGSVKTPLVQYDAATGSGLVLTTPGEKKGAGTKSTEFYSELWFIMVMAVVGLILLAIFLSLILQRKIHKEPCIRERPPLVPLQKRMTPLSVYPPGETHVGLADTRLPRSGTPMSIRSSQSVSVLRIPSQSQLSHAYSQSSLHRSVSQLMDMADKKVVTEDSLWETIMGHSSGLYVDEEELMNAIKGFSSVTKEHTAFTDTHL
modifications: FlAsH-EDT2 label on the CCPGCC motif
binds: all assays above
